Source: PMC11224344
No constants are given. Whether binding was seen depends on the method and setting. Binding seen in cells or lysates may run through a third protein. Some binding calls cover weakened binding; strength is not graded here.

Protein sequences, listed by entry. Tags and fused reporters are not part of them. Lines headed by an entry give the natural chain unless they say otherwise; changes in a name come on top.
UniProt Q9GZQ6: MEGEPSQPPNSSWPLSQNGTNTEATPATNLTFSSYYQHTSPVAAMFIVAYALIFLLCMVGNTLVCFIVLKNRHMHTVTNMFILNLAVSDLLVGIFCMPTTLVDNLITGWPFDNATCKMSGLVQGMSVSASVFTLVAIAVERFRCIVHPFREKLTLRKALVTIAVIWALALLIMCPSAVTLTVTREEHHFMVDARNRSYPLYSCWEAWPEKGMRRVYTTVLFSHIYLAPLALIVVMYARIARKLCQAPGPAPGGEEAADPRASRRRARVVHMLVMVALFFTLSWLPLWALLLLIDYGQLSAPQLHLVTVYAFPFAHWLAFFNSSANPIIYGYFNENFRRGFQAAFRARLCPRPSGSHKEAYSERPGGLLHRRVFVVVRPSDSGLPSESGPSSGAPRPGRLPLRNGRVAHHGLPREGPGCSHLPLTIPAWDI
UniProt Q9Y5X5: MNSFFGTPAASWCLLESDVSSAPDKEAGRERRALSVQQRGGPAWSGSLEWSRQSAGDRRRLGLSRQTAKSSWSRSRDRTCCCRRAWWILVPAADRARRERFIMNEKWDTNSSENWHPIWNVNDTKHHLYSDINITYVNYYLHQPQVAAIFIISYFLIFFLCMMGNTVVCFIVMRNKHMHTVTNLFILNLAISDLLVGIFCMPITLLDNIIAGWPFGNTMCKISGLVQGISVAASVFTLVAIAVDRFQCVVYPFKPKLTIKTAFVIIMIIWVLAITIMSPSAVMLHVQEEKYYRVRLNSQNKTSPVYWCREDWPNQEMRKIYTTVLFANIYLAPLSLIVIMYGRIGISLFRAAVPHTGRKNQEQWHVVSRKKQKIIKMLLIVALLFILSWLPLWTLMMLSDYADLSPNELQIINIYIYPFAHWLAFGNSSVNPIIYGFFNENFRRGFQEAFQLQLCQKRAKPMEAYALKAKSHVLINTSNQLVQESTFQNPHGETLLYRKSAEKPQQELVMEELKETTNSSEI
UniProt P21728: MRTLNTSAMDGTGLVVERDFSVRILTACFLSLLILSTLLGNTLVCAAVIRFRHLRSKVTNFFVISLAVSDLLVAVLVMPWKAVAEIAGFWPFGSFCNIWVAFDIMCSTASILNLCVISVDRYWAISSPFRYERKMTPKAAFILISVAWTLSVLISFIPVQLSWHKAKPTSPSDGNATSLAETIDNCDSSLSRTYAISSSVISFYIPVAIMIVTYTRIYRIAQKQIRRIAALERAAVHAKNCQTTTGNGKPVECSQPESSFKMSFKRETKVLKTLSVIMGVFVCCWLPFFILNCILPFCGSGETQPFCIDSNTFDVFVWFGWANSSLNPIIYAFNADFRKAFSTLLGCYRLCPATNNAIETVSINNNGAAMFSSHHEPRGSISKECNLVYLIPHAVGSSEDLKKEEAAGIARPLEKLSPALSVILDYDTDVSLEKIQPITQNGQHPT
UniProt P21918: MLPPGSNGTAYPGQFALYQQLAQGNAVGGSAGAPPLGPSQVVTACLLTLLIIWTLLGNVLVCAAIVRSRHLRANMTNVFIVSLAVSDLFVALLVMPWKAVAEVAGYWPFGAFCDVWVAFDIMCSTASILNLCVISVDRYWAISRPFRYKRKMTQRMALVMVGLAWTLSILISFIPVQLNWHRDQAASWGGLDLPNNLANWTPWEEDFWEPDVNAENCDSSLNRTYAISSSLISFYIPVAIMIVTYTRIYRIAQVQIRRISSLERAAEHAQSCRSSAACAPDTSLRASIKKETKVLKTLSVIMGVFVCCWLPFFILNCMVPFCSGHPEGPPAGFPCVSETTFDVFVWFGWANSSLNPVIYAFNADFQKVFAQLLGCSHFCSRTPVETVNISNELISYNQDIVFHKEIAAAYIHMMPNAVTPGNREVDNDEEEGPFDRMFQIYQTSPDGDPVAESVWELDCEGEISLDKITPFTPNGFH

What was measured:
[1] = biological target: Neuropeptide FF receptor NPFF-R1 (human (endogenous in hRPTCs)) (UniProt Q9GZQ6); test: co-IP; unpublished observation, in hRPTCs; no details given
[2] = biological target: Neuropeptide FF receptor NPFF-R2 (human (endogenous in hRPTCs)) (UniProt Q9Y5X5); test: as above
[3] = biological target: Neuropeptide FF receptor NPFF-R1 (human (endogenous in hRPTCs)) (UniProt Q9GZQ6); test: co-IP; hRPTC lysates immunoprecipitated with anti-NPFF-R1 or anti-NPFF-R2 antibodies coupled to Dynabeads, 4 h at 4 °C; eluted, SDS-PAGE, immunoblotted with anti-D1R or anti-D5R; normal IgG as negative control; lysis buffer 20 mM Tris-HCl pH 8.0, 1 mM EDTA, 1 mM NaN3, 2 mM DTT, 0.25 M sucrose
[4] = biological target: Neuropeptide FF receptor NPFF-R2 (human (endogenous in hRPTCs)) (UniProt Q9Y5X5); test: as above

For “angiotensin type I receptor (from UniProt P30556 1-359)”, the binding [1] was “binds” and the binding [2] was “binds”.

“Dopamine D1 receptor (D1R) (from UniProt P21728 1-446)” was tested, and the binding [3] was “binds” and the binding [4] was “binds”.

In the case of “Dopamine D5 receptor (D5R) (from UniProt P21918 1-477)”, the binding [3] is reported as “binds” and the binding [4] is reported as “no binding”.
